Experimental data: PubChem BioAssay (NCATS)
Several values for one entry are separate records, joined by “and”; a condition that tells them apart may be missing. Equal entries are not always repeated. Inconclusive means that the source gave no clear call. Such entries were picked first, then a sample of the others. For some assays here: Potencies of inconclusive entries are doubtful fits and often do not repeat. Activity calls are given as the source filed them. Unless noted, calls come from the whole dose curve; as a rule, active = well fitted curve in the direction sought with a large enough effect; inconclusive = small, poorly fitted or top-dose-only effect, or another doubt; inactive = no such curve, though single readings can be large; an effect the other way counts as inactive or inconclusive.

The chains behind the UniProt entries cited, without tags or fusion partners. Where a name states a change or a piece, a line headed by the entry shows the natural chain unless it says otherwise.
UniProt P46063: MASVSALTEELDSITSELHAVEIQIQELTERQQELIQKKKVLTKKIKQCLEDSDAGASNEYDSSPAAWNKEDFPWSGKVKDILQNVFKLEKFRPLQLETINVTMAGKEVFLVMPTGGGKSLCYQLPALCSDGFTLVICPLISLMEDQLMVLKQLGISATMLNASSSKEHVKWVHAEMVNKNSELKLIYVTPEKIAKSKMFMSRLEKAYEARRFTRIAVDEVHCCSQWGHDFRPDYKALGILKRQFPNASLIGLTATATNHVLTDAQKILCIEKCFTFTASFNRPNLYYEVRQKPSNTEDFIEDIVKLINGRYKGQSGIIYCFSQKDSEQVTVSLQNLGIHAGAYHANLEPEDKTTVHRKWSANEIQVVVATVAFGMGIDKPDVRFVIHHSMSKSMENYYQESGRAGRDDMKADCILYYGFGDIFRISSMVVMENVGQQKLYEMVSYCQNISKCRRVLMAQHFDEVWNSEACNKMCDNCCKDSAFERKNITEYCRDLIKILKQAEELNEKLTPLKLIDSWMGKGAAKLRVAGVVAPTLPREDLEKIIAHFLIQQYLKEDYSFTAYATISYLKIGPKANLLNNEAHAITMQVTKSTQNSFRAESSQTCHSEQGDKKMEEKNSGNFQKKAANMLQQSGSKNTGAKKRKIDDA
UniProt P54132: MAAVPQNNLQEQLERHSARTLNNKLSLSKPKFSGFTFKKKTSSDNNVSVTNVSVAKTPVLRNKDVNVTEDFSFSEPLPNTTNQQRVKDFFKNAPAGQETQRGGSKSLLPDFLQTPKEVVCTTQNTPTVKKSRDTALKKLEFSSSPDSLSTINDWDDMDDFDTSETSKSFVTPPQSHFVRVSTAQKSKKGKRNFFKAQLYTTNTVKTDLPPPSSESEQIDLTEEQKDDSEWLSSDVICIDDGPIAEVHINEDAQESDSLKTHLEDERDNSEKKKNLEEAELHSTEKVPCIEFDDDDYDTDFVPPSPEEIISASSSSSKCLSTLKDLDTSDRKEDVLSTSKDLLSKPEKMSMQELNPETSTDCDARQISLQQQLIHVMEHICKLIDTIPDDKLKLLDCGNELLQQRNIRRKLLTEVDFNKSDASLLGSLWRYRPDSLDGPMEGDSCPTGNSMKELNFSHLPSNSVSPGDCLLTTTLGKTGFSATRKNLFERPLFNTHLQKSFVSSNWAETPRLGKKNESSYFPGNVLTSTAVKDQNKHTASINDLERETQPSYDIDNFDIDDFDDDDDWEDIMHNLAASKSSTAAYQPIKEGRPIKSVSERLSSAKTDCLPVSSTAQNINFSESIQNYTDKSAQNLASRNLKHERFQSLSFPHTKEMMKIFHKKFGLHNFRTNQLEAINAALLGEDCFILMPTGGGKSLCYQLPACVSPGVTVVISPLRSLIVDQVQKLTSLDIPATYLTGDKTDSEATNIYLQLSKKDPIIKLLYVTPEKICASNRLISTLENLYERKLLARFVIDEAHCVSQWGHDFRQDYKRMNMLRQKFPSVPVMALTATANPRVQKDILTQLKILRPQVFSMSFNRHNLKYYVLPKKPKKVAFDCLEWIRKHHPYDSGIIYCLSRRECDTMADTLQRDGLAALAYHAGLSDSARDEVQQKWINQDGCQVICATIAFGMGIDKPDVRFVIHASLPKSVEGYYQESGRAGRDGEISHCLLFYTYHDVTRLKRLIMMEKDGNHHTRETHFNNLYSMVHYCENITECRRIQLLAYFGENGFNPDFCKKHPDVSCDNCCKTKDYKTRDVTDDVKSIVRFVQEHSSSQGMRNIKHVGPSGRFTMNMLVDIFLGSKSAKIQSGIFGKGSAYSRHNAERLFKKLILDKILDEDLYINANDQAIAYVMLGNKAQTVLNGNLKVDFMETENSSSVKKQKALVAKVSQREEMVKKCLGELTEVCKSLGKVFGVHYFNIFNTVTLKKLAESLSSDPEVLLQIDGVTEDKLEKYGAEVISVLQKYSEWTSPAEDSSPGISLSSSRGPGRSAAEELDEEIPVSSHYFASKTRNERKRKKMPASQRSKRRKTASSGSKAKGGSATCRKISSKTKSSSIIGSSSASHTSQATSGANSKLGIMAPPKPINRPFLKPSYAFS
UniProt O15648: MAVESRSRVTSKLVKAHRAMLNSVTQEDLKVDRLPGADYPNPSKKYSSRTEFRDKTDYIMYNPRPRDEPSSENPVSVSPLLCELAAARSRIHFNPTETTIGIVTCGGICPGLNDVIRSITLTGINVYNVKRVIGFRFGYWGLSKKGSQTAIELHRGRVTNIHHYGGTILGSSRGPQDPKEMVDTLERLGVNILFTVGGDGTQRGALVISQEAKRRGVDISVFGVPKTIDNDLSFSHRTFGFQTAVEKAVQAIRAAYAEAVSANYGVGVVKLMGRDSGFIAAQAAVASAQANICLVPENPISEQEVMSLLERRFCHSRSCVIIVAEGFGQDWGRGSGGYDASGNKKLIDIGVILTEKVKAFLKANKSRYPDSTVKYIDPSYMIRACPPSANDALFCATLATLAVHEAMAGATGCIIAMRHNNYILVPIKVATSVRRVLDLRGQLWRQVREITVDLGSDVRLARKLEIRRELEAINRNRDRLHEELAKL
UniProt O89049, whole entry, looked up: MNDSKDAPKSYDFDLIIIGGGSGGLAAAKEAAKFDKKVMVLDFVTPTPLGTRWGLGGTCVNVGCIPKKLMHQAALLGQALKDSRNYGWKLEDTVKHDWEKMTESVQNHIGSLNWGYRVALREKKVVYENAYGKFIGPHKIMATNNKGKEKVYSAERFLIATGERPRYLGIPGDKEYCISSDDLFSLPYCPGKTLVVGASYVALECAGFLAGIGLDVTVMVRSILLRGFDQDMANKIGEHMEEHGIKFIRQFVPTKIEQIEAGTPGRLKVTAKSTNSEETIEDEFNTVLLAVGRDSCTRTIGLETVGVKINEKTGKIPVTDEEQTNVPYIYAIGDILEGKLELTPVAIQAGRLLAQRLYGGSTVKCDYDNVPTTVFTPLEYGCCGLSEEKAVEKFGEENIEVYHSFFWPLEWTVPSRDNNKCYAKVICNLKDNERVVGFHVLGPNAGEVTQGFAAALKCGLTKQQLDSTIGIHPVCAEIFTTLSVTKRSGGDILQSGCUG
UniProt P43220, whole entry, looked up: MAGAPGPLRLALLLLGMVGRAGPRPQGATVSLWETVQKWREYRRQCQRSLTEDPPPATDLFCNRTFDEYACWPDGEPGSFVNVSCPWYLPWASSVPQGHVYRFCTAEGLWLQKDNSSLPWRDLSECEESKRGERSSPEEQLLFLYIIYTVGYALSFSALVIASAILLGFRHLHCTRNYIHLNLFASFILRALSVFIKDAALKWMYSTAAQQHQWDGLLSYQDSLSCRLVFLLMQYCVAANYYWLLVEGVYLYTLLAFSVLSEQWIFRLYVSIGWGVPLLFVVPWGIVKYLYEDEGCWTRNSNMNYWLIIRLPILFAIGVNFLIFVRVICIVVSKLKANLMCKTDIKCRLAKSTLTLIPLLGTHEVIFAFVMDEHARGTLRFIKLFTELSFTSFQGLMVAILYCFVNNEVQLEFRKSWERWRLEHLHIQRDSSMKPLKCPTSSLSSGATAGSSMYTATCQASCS
UniProt P15289: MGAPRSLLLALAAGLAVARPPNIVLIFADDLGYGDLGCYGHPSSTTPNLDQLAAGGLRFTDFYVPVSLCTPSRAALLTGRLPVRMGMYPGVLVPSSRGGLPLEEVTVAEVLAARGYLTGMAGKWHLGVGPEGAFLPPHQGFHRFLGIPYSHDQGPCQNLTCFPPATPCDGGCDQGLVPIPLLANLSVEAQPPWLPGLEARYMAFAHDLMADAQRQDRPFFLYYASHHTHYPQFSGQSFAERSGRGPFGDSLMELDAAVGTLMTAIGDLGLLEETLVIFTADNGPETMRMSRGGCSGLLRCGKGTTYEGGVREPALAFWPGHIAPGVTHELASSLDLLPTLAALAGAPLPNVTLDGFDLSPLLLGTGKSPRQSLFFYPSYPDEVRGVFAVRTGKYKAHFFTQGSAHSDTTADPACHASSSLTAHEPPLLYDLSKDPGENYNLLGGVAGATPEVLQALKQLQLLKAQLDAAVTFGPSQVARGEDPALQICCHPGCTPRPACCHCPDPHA
UniProt Q9BV86: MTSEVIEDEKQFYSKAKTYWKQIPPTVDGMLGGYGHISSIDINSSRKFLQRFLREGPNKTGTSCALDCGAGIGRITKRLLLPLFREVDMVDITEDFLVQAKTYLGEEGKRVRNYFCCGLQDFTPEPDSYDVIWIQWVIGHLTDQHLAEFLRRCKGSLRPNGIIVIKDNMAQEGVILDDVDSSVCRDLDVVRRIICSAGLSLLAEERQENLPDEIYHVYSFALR

Assays:
[1] = Stat Signaling Pathway (AID 446; active = well fitted curve in either direction with a large enough effect, not every such curve was filed as active; inconclusive = small, poorly fitted or top-dose-only effect, or another doubt;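 note: ME-180 cervical cancer cells given 40 pM IL-6 alongside compound; SIE-controlled beta-lactamase reporter measured as 460/530 nm FRET emission ratio; % is set by controls: 0 for no effect and ±100 for the full control effect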); conditions: ME-180 SIE beta-lactamase reporter, IL-6 stimulated, 5 h
Method in brief: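 Overnight-plated ME-180 cells bearing a STAT Inducible Element beta-lactamase reporter; 5 h co-exposure to compound and 40 pM IL-6; values normalized to 300 pM IL-6 and 125 nM JAK inhibitor controls.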

[2] = qHTS Assay for Identification of Small Molecule Antagonists for NFkB Signaling Pathway (AID 895; active = well fitted inhibition curve with a large enough effect in the signal ratio, with a control signal flat, not every such curve was filed as active; inconclusive = small, poorly fitted or top-dose-only effect, or effect the other way, or a change in a side signal; the % refers to the signal ratio; note: % is set by controls: 0 for no effect and ±100 for the full control effect); conditions: NFkB beta-lactamase reporter cells, FRET ratio 460/530, stimulated with 10 pM TNF alpha; activity change, negative = inhibition: at 38.3 µM (top of the series)
Method in brief: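 ME-180 NFkB-bla cells (beta-lactamase under NFkB response element), plated overnight, treated with compound then 10 pM TNF alpha (about EC50) for 5 hrs at 37 C. LiveBLAzer FRET read at 460/530 nm emission, 405 nm excitation.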

[3] = qHTS Assay for Identification of Small Molecule Antagonists for Thrombopoietin (TPO) Signaling Pathway (AID 918); conditions: TPO-dependent cell signaling reporter, antagonist mode; activity change, negative = inhibition: at 38.5 µM (top of the series)
Method in brief: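 Luminescence read-out: GPIIb-promoter luciferase in Ba/F3 cells carrying human TPO receptor. Compounds added with 26 pM TPO (EC50), 24 hrs, 37 C, 5% CO2; cells deprived of IL-3 overnight beforehand. Inhibition of signal scored.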

[4] = qHTS Assay for Lipid Storage Modulators (AID 1519; calls by dose curve; note: % is set by controls: 0 for no effect and ±100 for the full control effect); conditions: Drosophila S3 cells, BODIPY lipid droplet/cell ratio, laser cytometry, cells loaded with oleic acid; activity change, negative = inhibition: at 57.5 µM (top of the series) unless noted
Method in brief: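 Cells seeded at 5,000 per well were treated with compounds over a concentration series and loaded with oleic acid (400 uM, as added). Lipid droplet fluorescence (488 nm excitation, 500-530 nm channel) was read by laser-scanning cytometry and normalized to 20 uM Triacsin C.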

[5] = target: ATP-dependent DNA helicase Q1 (Homo sapiens) (UniProt P46063); assay: qHTS Validation Assay for Inhibitors of RecQ-Like Dna Helicase 1 (RECQ1) (AID 2353);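 note: plate controls were DMSO vehicle for no effect and enzyme-free control for full effect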
Method in brief: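 RECQ1T1 50 nM; forked duplex (20 bp + 30-nt ss tails) 200 nM, ATP 2 mM final; pH 8.0, 2 mM MgCl2, 2.5 ug/ml poly(dI-dC); 15 min compound preincubation; discontinuous kinetic read over 2 h at RT.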

[6] = target: RecQ-like DNA helicase BLM (Homo sapiens) (UniProt P54132); assay: qHTS Validation Assay for Inhibitors of Bloom's syndrome helicase (BLM) (AID 2364); note: potency is the fitted concentration of half-maximal effect
Method in brief: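 50 nM BLM preincubated 15 min at room temperature with compound in pH 8.0 Tris buffer containing 2.5 ug/ml poly(dI-dC); started with 200 nM TAMRA/BHQ-2 forked duplex and 2 mM ATP (final). Unwinding read as TAMRA fluorescence increase, two reads 2 h apart.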

[7] = target: ATP-dependent 6-phosphofructokinase (Trypanosoma brucei brucei) (UniProt O15648); assay: qHTS Validation Assay to Find Inhibitors of T. brucei phosphofructokinase (AID 485368); conditions: activity change, negative = inhibition: at 57.5 µM (top of the series); note: potency is the fitted concentration of half-maximal effect
Method in brief: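 PFK-generated ADP was measured after 45 min at room temperature using ADP-Glo. The reaction contained 0.5 mM F6P and 0.1 mM ATP.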

[8] = Quantitative high throughput screen for delayed death inhibitors of the malarial parasite plastid, 96 hour incubation (AID 488745); note: potency is the fitted concentration of half-maximal effect; nearly all actives have a fitted effect of over 70% in size
Method in brief: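 Luciferase-expressing P. falciparum, infected RBCs 2% Hct/0.1% parasitemia (final); 96 h cpd exposure, 37 C, 5% CO2; RPMI 1640 + 0.5% Albumax, bicarbonate, gentamycin. Readout: luminescence loss = growth inhibition.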

[9] = target: Thioredoxin reductase 1, cytoplasmic (Rattus norvegicus) (UniProt O89049); assay: qHTS Assay for Inhibitors of Mammalian Selenoprotein Thioredoxin Reductase 1 (TrxR1) (AID 488773); conditions: Potency: inhibition; note: potency is the fitted concentration of half-maximal effect; nearly all actives have a fitted effect of over 40% in size
Method in brief: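 Inhibition is scored from the loss of NADPH fluorescence between first and last reads of an 8-min kinetic run. Selenite (400 uM) was the substrate, added after 15 min compound preincubation at room temperature.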

[10] = target: Glucagon-like peptide 1 receptor (Homo sapiens) (UniProt P43220); assay: qHTS of GLP-1 Receptor Agonists: LOPAC Validation (AID 624148); conditions: GLP-1R agonist cell assay; activation: at 46.1 µM (top of the series);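 note: 0% is about no effect; higher luminescence signal means agonism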
Method in brief: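 HEK293 cells stably co-expressing GLP-1R and a cAMP-responsive luciferase reporter, plated 12 hours before compound, then incubated 4-6 hr at 37 deg C. Luminescence read 12 min after detection reagent.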

[11] = target: Arylsulfatase A (Homo sapiens) (UniProt P15289); assay: qHTS screen for enhancers of Arylsulfatase A (ASA1): LOPAC Validation Assay (AID 720538); conditions: activity change, positive = activation: at 57.5 µM (top of the series); note: 0% is about no effect
Method in brief: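 Read-out: fluorescence at Ex=525/Em=598 nm after 1N NaOH final stop. Patient fibroblasts carrying ASA-I179S had 48h compound exposure, then 14h room-temperature pNCS hydrolysis (0.5mM final) in lysis buffer. Signal increase = enhanced activity.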

[12] = qHTS of pediatric cancer cell lines to identify multiple opportunities for drug repurposing: Primary screen for SJ-GBM2 cells (AID 1347091);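 note: plate controls were DMSO neutral control for no effect and bortezomib for full effect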
Method in brief: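 Viability measured as metabolically active cells via CellTiter-Glo luminescence following 48 hours of compound exposure, 11-point dilutions in confirmatory testing. 500-1,000 cells/well plated 5 hours before dosing; controls were DMSO and 2.3 µM bortezomib.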

[13] = qHTS of pediatric cancer cell lines to identify multiple opportunities for drug repurposing: Primary screen for LAN-5 cells (AID 1347100);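 note: plate controls were DMSO neutral control for no effect and bortezomib positive control for full effect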
Method in brief: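 Viability after 48 h compound treatment at 37C, 500-1,000 cells/well, read as ATP luminescence with CellTiter-Glo. Primary screens used 11-point (MIPE, 0.78 nM-46 µM) or 8-point (NPC, 0.59 nM-46 µM) final concentrations; follow-up screens used 11-point dilutions.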

[14] = target: N-terminal Xaa-Pro-Lys N-methyltransferase 1 (Homo sapiens) (UniProt Q9BV86); assay: qHTS Assay for Inhibitors of N-terminal methyltransferase 1 (NTMT1): LOPAC validation of the NTMT1 SAHH-coupled ThioGlo3 Assay (AID 1347143);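 note: SAH from peptide methylation measured as thiol fluorescence via SAHH coupling and ThioGlo3; potency is the fitted concentration of half-maximal effect; nearly all actives have a fitted effect of over 70% in size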
Method in brief: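 Steps: dispense 125nM NTMT1; pin-transfer test compounds at several concentrations, with 1uM RCC1-6 peptide as control; incubate 1 min; start with reagent holding 100uM SAM, 10uM SAHH, 15uM ThioGlo3; read at 0 and 30 min.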

[15] = A High-Content qHTS Against Drug Library for the Identification of Small Molecules that Inhibit DYT1 Early Onset Primary Dystonia-Associated Cell Pathology (AID 1645839; calls by dose curve)
Method in brief: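 Cells were seeded and left for 24 h, then dosed with compound alongside tetracycline induction of mutant EGFP-TorsinA. They were incubated for 48 h, fixed in 4% paraformaldehyde, permeabilized and imaged for mislocalization (%pathology) and cell count.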

SKOV3 = assay: Primary qHTS to identify gynecologic anti-cancer compounds using libraries of approved drugs and bioactive compounds (AID 1345084); conditions: Gynecologic cancer cell panel viability, ATPlite luminescence, 48 h; series mostly up to 57.5 µM; note: nearly all actives have a fitted effect of over 55% in size; note: potency is the fitted concentration of half-maximal effect
Method in brief: (§1)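 Luminescence from the ATPlite ATP-monitoring reagent indicates viable cell number; lower signal means cytotoxicity. Cells received compound 16 h after seeding and were exposed for 48 h across five concentrations.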

astro = assay: Drug repurposing screens with cells derived from glioblastoma tumor samples (AID 1345199); conditions: viability, ATP luminescence, 48 h; activity, negative = cell killing: at 45.9 µM (top of the series) unless noted; note: % is set by controls: 0 for no effect and ±100 for the full control effect; nearly all actives have a fitted effect of over 40% in size
Method in brief: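 Primary testing used CD133+ neurospheres from four GBM patients, seven concentrations, 48 h exposure and ATP-based viability; confirmation added three slower-growing patient lines.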

[16] = qHTS to identify inhibitors of the type 1 interferon - major histocompatibility complex class I in skeletal muscle: primary screen against the NCATS Mechanism Interrogation Plate v5.0 (MIPE) Libary (AID 1347411); conditions: iHSKM cells + IFN-b, HiBiT-tagged MHC-I luminescence, 24 h; activity change, negative = inhibition: at 45.8 µM (top of the series) unless noted; note: potency is the fitted concentration of half-maximal effect; nearly all actives have a fitted effect of over 65% in size
Method in brief: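 HLA-B HiBit myoblasts, dexamethasone-free medium + 4 ng/ml IFN-b, 24 h compound, 11-pt 1:3 from 46 uM final. Readout: Nano-Glo HiBiT lytic luminescence after 10 min lysis, RT.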

[17] = Primary qHTS for inhibitors of nuclear receptor binding SET domain protein 2 (NSD2) in an isogenic RCH-ACV NSD2 p.E1099K mutant (9B) (AID 1645876); conditions: activity change, negative = viability loss: at 44.9 µM (top of the series) unless noted; note: potency is the fitted concentration of half-maximal effect; nearly all actives have a fitted effect of over 70% in size
[18] = Primary qHTS for inhibitors of nuclear receptor binding SET domain protein 2 (NSD2) in an RCH-ACV wild type WT cells (2C) (AID 1645877); conditions: activity change, negative = cell killing: at 44.9 µM (top of the series) unless noted; note: potency is the fitted concentration of half-maximal effect; nearly all actives have a fitted effect of over 70% in size
Tov112D = assay: Primary qHTS to identify gynecologic anti-cancer compounds using libraries of approved drugs and bioactive compounds (AID 1345084); conditions: Gynecologic cancer cell panel viability, ATPlite luminescence, 48 h; series mostly up to 57.5 µM; note: nearly all actives have a fitted effect of over 55% in size; note: potency is the fitted concentration of half-maximal effect
Method in brief: as §1

Structure (SMILES): CCn1nc(C(=O)O)c(=O)c2cc3c(cc21)OCO3
- activity, negative = inhibition ([1]; at 17.2 µM (top of the series)): inconclusive: 0.845% [inhibitor]
- activity, negative = inhibition ([1]; at 38 µM (top of the series)): inconclusive: -66.5% [inhibitor]
- activity change, negative = inhibition [2]: inconclusive: 18.6%
- activity change, negative = inhibition [3]: inconclusive: 0.423% [phenotype inactive]
- activity change, negative = inhibition [4]: inconclusive: 0.336%
- Potency [5]: inactive
- Potency [6]: inconclusive: 0.282 µM [inhibitor, full curve]
- Potency [7]: inconclusive: 10.7 µM [activator, partial curve, poor fit]
- Potency [8]: inconclusive: 18.5 µM [inhibitor, single point]
- Potency [9]: inconclusive: 26.7 µM [inhibitor, single point]
- Potency [10]: inactive
- Potency [11]: inactive
- Potency [12]: inactive
- Potency [13]: inactive
- Potency [14]: inconclusive: 50.1 µM [inhibitor, partial curve, poor fit]
- Potency [15]: inactive
- Potency (SKOV3): inconclusive: 0.126 µM [rising, full curve, poor fit]
- Potency (astro): inactive

Structure (SMILES): CCCOc1ccn2c(C(C)=O)cc(-c3ccccc3S(C)(=O)=O)c2c1
- Potency [16]: inconclusive: 18.6 µM [inhibitor, partial curve, poor fit]
- Potency [17]: inconclusive: 32.5 µM [inhibitor, partial curve, poor fit] and inconclusive: 16.6 µM [inhibitor, partial curve]
- Potency [18]: inconclusive: 20.5 µM [inhibitor, single point] and active: 18.6 µM
- Potency (SKOV3): inconclusive: 0.0178 µM [rising, partial curve, poor fit]
- Potency (Tov112D): inactive
